# Primary screen of a compound library

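Growth of Mycobacterium tuberculosis over 4 days (cholesterol / DPPC medium with tyloxapol); the read-out is not stated. Compounds at 500 µM. The record gives no direction; compounds that gave an IC50 in retests scored well above the rest, so higher reads as more growth inhibition. About 18,000 compounds were tested under these conditions; 5% (about 900) showed 50% or more at least once.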

Results are given as percent effect.
How 0% and 100% were set is not recorded. Most values in the screen are low, and negative values occur.
The compounds are a random part of those screened.

- COC(=O)c1ccc(C)c(CO)c1 | 1.99%
- O=C(Nc1ccncc1)c1coc(Br)c1 | 31.54%
- O=C(NCc1nnc2n1CCC2)Nc1nncs1 | -17.74%
- CC(C)NC(=O)NC1CCNC1 (centres undefined) | 7.25%
- NC(=O)c1ccsc1NC(=O)CCN1CCCC1 | 53.67%
- CNCC(=O)Nc1cccc(OC)c1 | 3.991%
- Cn1cc(S(=O)(=O)NCc2ccco2)cn1 | -22.34%
- CCN1CC(C)C(=O)N(CCN2CCOCC2)C1=O (centres undefined) | -11.67%
- Cn1cc(CN2C[C@@H](F)C[C@H]2CN)cn1 | 13.94%
- CCN1CCN(CC(=O)Nc2ccccc2)CC1 | -2.368%
- CC(N)c1nc(-c2ccc3c(c2)OCO3)c[nH]1 (centres undefined) | -5.069%
- CSCC[C@H](N)C(=O)N(C)Cc1ncc(Cl)n1C | 0.6483%
- CC(=O)c1ccc(NC(=O)c2ncoc2C)nc1 | 4.354%
- COCC(C)NC(=O)c1sc(C)nc1C (centres undefined) | 2.423%
- NC(=O)C1CCN(CCCNCc2ccc(Cl)s2)CC1 | 9.384%
- COCc1nc2ccccc2n1CC(=O)NCC(C)C | -6.651%
- CCc1nnc(CNC(=O)C2CCC(=O)N(CC)C2)s1 (centres undefined) | 3.806%
- OCCOc1ccc(NC2CCCSC2)cn1 (centres undefined) | -63.32%
- COc1ccc(CN)c(F)c1 | -4.1%
- COC(=O)COc1ccc2c(c1)OCO2 | 66.68%
- Cn1nccc1C1COCCN1 (centres undefined) | -8.104%
- C[C@@H](CO)NC(=O)c1ccccc1NCc1ccco1 | 12.1%
- CSc1ccccc1C(=O)NCCSc1nnnn1C | 8.153%
- COc1ccc(CNCCn2cccn2)cc1F | 38.8%
- CN(C)c1cc(CNC(=O)c2ccncc2)ccn1 | 24.74%
- Cn1cc(C(=O)NCCNS(C)(=O)=O)c2ccccc21 | 3.097%
- COc1ccc(CCC(=O)N2CCNCC2)cc1 | -1.029%
- CCC(=O)N1CCN(c2ccc(C(C)=O)cc2F)CC1 | 19.37%
- CC(C)(C)OC(=O)NCCC1CCCNC1 (centres undefined) | 10.57%
- O=C1CCC2(CNC(=O)c3ccco3)CCCC=C2N1 (centres undefined) | -13.65%
- CC(C)CCN1CCN(CC(=O)NC(N)=O)CC1 | -14.95%
- CCOc1ccc(C(=O)N(C)Cc2cnn(C)c2)cn1 | 14.85%
- COc1cccc(OC)c1OCC(O)COC(C)C (centres undefined) | 10.94%
- Cc1c[nH]c(C(=O)N2CCN3CCN(C)CC3C2)n1 (centres undefined) | 7.592%
- OCc1c(Cl)ccc2cccnc12 | -43.48%
- COCCNC(=O)C(C)N(C)CC(C)C (centres undefined) | -8.327%
- CC(C)N1CC(C(=O)NCc2c[nH]nn2)CC1=O (centres undefined) | -6.419%
- CC(N)Cc1cccs1 (centres undefined) | 12.21%
- O=C(C1CCCC1)N1CCC(NC2CCOCC2)C1 (centres undefined) | 1.388%
- FC(F)(F)c1cccnc1NCC1CNCCOC1 (centres undefined) | 3.2%
- OCCC1CCCCN1Cc1cccnc1 (centres undefined) | -49.93%
- Cn1c(CCO)nc2ccccc21 | 13.61%
- Cc1nccn1CCN1CCOCC1 | -23.01%
- FC(F)(F)c1ccc(OC2CCNCC2)nc1 | 55.56%
- CC(C)NC(=O)c1nc(-c2ccc(F)cc2)no1 | 1.466%
- NCCCc1cn[nH]c1 | 9.184%
- N#Cc1ccc(N2CCOC2=O)nc1 | 11.35%
- N#Cc1ccnc(SCc2ccncc2)c1 | 45.05%
- CCCS(=O)(=O)NC1CCN(Cc2nnc(C)o2)CC1 | -8.868%
- COCCN(Cc1cccs1)C(=O)C1CCNC1 (centres undefined) | -1.199%
- C1CNC[C@@H](CN2CCOCC2)C1 | -4.442%

Repeated from the top, 5 entries:

- COC(=O)c1ccc(C)c(CO)c1 | 1.99%
- O=C(Nc1ccncc1)c1coc(Br)c1 | 31.54%
- O=C(NCc1nnc2n1CCC2)Nc1nncs1 | -17.74%
- CC(C)NC(=O)NC1CCNC1 (centres undefined) | 7.25%
- NC(=O)c1ccsc1NC(=O)CCN1CCCC1 | 53.67%

Data taken from ChEMBL document CHEMBL3988442, “University of Dundee, Small-Polar-MMV Screening Library” (2021).